Results reported in patent US20190010158A1, “ANTITUMOR EFFECT POTENTIATOR COMPRISING PYRROLOPYRIMIDINE COMPOUND” (TAIHO PHARMACEUTICAL CO., LTD, priority 2015, published 2019).
At least one read-out could not be matched to a standard name with certainty.

System: tumor cell lines shown in Table 24
Assay: Example 2: combined use with tyrosine kinase inhibitor, cell growth inhibition test (IC50 ratio, CI)
Type: cell-based

Cc1ccc(C(=O)Nc2ccc(CN3CCN(C)CC3)c(C(F)(F)F)c2)cc1C#Cc1cnc2cccnn12 [Ponatinib, ponatinib]
IC50 Ratio: 11
